From PubChem BioAssay come the findings set out here.

Values joined by “and” are separate entries in the source; they are usually repeats but may differ in a detail not shown here. Equal values may be shown once. Some of the results follow. Entries with a potency or affinity are not part of this list. Where no call is shown, the source marks the result inconclusive.

This assay in a line: PubChem AID 1597. To be noted: Drosophila SCA1 polyglutamine model, at 1 µM, stronger effect = higher value.
`O=C1c2c(O)ccc(O)c2C(=O)c2c(NCCNCCO)ccc(NCCNCCO)c21` registered a suppression of toxicity of 1.43.
The value for `CC(=O)OCC(=O)[C@@]1(O)CCC2C3CCC4=CC(=O)C=CC4(C)C3[C@@H](O)C[C@@]21C` (some centres undefined) was 0.715.
The value for `Cc1cc(NS(=O)(=O)c2ccc(N)cc2)no1` was 8.57; that for `CCCC(CCC)C(=O)O` was 0.715; that for `Nc1ccn(C2O[C@H](CO)[C@@H](O)[C@@H]2O)c(=O)n1` (some centres undefined) was 6.43.
The value for `CN(C)C(=O)Oc1cccc([N+](C)(C)C)c1` was 11.4 and 3.58; that for `CNC[C@@H](O)c1ccc(O)c(O)c1` was 8.57.
Consider `O=c1cc[nH]c(=S)[nH]1`, for which the suppression of toxicity was 11.5.
`CCCNC(=O)NS(=O)(=O)c1ccc(Cl)cc1`: the suppression of toxicity is 1.43.
The value for `COC(=O)Nc1nc2ccc(C(=O)c3ccccc3)cc2[nH]1` was 0.
Consider `NCC(O)CC(=O)O` (centres undefined), for which the suppression of toxicity is 7.86.
The same measure for `NCC1OC(OC2C(N)CC(N)C(OC3OC(CO)C(O)C(N)C3O)C2O)C(N)C(O)C1O` (centres undefined): 0.715; for `CCN(CC)CCCC(C)Nc1ccnc2cc(Cl)ccc12` (centres undefined): 3.58.
Compound `Cc1cccc(CN2CCN(C(c3ccccc3)c3ccc(Cl)cc3)CC2)c1` (centres undefined) came in with a suppression of toxicity of 2.15.
The compound `CCCCCCCCCCCCC[N+](C)(C)Cc1ccccc1` yielded a suppression of toxicity of 4.29.
In turn, `CCCCCCc1ccc(O)cc1O` displayed a suppression of toxicity of 10.1.
The value for `CC1=NN(c2ccccc2)C(=O)C1` was 3.58.
The same measure for `COC(=O)[C@H]1[C@H]2C[C@H]3c4[nH]c5cc(OC)ccc5c4CCN3C[C@H]2C[C@@H](OC(=O)c2cc(OC)c(OC)c(OC)c2)[C@@H]1OC`: 5.71.
The value for `CN1C2CC[C@@H]1CC(OC(=O)[C@H](CO)c1ccccc1)C2` (some centres undefined) was 0.
Compound `O=C1c2c(O)cccc2Cc2cccc(O)c21` came in with a suppression of toxicity of 1.43.
The same measure for `Nc1nc2c(c(=O)[nH]1)N(C=O)C(CNc1ccc(C(=O)N[C@@H](CCC(=O)O)C(=O)O)cc1)CN2` (some centres undefined): 2.86; for `CCCN(CCC)S(=O)(=O)c1ccc(C(=O)O)cc1`: 8.57.
As to `Cc1c(N(C)CS(=O)(=O)O)c(=O)n(-c2ccccc2)n1C`, the suppression of toxicity came out at 2.86.
The value for `CC1=CC(=O)c2ccccc2C1=O` was 11.4.
The value for `CCN(CC)CCNC(=O)c1ccc(N)cc1` was 2.86.
Compound `C#C[C@]1(O)CCC2C3CCC4=CC(=O)CC[C@@H]4C3CC[C@@]21C` (some centres undefined) displayed a suppression of toxicity of 4.29.
The value for `CC(C)=CCC/C(C)=C/CO` was 4.29.
The value for `O=C(O)c1cc2cc(Cc3cccnc3)ccc2o1` was 5; that for `CC1CCC(NC(=O)N(CCCl)N=O)CC1` (centres undefined) was 12.9; that for `C1CCN2C[C@H]3C[C@H](CN4CCCC[C@@H]34)[C@H]2C1` was 1.43.
The same measure for `Nc1ncnc2c1ncn2[C@@H]1O[C@H](CO)[C@@H](O)[C@@H]1O`: 11.4.
With `CCC(C)CCCCC(=O)NC(CCN)C(=O)NC(C(=O)NC(CCN)C(=O)NC1CCNC(=O)C(C(C)O)NC(=O)C(CCN)NC(=O)C(CCN)NC(=O)C(CC(C)C)NC(=O)C(Cc2ccccc2)NC(=O)C(CCN)NC1=O)C(C)O` (centres undefined), the suppression of toxicity was 5.
The value for `CC(COc1ccccc1)N(CCCl)Cc1ccccc1` (centres undefined) was 2.85; that for `Nc1c2c(nc3ccccc13)CCCC2` was 10.7.
Compound `CC(C)Cc1ccc(C(C)C(=O)O)cc1` (centres undefined) registered a suppression of toxicity of 8.57.
With `COCCc1ccc(OCC(O)CNC(C)C)cc1` (centres undefined), the suppression of toxicity stood at 0.715.
`C/C=C(/C(=C/C)c1ccc(O)cc1)c1ccc(O)cc1` had a suppression of toxicity of 3.57.
Compound `C=C[C@H]1CN2CC[C@H]1C[C@@H]2[C@H](O)c1ccnc2ccc(OC)cc12` came in with a suppression of toxicity of 2.86.
The value for `CC1(C)O[C@@H]2CC3C4C[C@H](F)C5=CC(=O)C=CC5(C)C4C(O)CC3(C)[C@]2(C(=O)CO)O1` (some centres undefined) was 0.
